Here are results for five molecules from article PMC10164956.

Protein sequences, listed by entry. Tags and fused reporters are not part of them.
UniProt Q8BX22: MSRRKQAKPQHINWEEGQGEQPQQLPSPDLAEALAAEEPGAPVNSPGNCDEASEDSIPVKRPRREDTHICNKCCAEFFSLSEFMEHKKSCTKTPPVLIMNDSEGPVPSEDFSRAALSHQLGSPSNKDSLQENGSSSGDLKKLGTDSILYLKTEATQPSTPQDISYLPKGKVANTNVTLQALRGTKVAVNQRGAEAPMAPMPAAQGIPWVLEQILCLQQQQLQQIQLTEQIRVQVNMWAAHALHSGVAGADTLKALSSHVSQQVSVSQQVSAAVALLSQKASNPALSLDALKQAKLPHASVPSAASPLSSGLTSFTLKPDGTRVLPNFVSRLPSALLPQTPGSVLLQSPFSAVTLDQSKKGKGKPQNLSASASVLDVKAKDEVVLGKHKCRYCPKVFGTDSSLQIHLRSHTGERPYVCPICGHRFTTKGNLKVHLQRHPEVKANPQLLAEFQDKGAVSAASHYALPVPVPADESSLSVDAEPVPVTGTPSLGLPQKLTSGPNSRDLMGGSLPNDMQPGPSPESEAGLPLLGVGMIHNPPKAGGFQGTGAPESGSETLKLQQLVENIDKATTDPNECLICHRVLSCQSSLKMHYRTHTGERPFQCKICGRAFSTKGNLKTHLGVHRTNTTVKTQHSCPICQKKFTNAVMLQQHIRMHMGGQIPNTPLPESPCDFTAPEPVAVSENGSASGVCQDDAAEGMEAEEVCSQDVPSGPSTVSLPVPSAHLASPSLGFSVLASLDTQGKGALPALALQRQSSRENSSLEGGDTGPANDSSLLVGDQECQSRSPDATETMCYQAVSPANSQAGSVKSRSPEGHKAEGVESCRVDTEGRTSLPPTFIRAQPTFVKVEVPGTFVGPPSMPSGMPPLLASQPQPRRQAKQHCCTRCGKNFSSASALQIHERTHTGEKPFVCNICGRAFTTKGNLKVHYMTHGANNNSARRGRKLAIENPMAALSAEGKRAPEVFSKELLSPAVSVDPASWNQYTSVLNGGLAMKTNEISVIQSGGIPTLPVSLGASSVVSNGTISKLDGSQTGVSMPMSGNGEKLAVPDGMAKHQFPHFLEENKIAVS
UniProt O35730: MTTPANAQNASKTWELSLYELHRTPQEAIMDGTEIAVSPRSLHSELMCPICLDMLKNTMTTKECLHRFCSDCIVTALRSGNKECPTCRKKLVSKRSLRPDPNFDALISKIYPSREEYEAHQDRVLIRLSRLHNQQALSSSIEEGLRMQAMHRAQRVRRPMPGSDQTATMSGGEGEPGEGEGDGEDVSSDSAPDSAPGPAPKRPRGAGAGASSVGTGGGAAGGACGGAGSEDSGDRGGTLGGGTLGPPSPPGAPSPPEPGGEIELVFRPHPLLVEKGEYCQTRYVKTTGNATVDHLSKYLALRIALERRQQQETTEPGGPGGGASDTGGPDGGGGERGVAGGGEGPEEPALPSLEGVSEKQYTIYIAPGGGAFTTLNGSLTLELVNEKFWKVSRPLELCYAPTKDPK

Read-outs that look alike come from different tables or passages of the source. These are yes or no findings as the source states them, for the method shown. In cells and extracts the contact can be indirect. These calls come from enrichment with a bait or labelling near it, and not all partners need be listed. For some assays here: No binding means not detected with the bait.

Common to all, as to assay: affinity purification with mass spectrometry; anti-BMI1 antibody against IgG control on lysate of mouse undifferentiated spermatogonia; SDS-PAGE, silver staining, in-gel trypsin digestion, LC-ESI-Q-TOF; fold-change ≥2 and at least two identified peptides
Assay [1] deals with T1, B cell-specific Moloney murine leukemia virus integration site 1 (BMI1) (mouse (endogenous in undifferentiated spermatogonia)) (UniProt P25916).
T1 sequence: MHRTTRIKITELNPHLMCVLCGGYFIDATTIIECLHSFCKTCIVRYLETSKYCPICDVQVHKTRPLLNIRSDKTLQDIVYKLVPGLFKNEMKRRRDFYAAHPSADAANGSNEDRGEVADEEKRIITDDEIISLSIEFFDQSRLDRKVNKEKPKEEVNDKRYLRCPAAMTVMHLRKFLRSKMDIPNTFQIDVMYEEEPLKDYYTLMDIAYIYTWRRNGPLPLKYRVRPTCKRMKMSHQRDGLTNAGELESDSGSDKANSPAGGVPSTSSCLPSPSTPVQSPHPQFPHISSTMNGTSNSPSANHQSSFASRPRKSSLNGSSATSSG

Assay [2] concerns the target T2, B cell-specific Moloney murine leukemia virus integration site 1 (BMI1) (mouse (endogenous in undifferentiated spermatogonia)), P25916.
T2 chain: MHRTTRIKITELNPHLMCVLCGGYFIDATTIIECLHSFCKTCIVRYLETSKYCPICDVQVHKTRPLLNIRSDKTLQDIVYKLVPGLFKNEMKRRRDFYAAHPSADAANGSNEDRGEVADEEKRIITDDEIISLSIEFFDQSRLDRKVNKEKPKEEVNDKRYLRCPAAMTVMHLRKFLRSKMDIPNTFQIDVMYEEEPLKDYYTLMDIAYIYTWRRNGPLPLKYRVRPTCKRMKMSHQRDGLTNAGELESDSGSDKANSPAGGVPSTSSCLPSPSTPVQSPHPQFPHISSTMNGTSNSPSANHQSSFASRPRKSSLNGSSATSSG
Particulars: remark: other sources report otherwise.

Substrate in assay [3]: T3, B cell-specific Moloney murine leukemia virus integration site 1 (BMI1) (mouse (endogenous in undifferentiated spermatogonia)) (UniProt P25916)
T3 sequence: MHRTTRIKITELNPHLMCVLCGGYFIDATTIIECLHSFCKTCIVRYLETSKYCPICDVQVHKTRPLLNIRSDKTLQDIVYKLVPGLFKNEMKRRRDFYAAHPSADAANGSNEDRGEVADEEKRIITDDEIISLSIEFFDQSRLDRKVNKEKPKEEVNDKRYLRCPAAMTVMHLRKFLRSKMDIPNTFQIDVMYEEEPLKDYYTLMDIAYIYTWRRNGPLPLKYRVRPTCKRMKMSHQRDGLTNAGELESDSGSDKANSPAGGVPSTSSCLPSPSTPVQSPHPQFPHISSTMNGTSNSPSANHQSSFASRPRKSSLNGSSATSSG
This is another data set of the same source.

“Sal-like 4 (SALL4) (from UniProt Q8BX22 1-1067)”: the binding entry in assay [1] is listed as “binds”.

RING1A (from UniProt O35730 1-406): the binding result in assay [1] was “binds”.

B1: RYBP, Q8CCI5 1-228 (protein)
chain: MTMGDKKSPTRPKRQAKPAADEGFWDCSVCTFRNSAEAFKCSICDVRKGTSTRKPRINSQLVAQQVAQQYATPPPPKKEKKEKVEKPDKEKPEKDKDISPSVTKKNTNKKTKPKSDILKDPPSEANSIQSANATTKTSETNHTSRPRLKNVDRSTAQQLAVTVGNVTVIITDFKEKTRSSSTSSSTVTSSAGSEQQNQSSSGSESTDKGSSRSSTPKGDMSAVNDESF
Take B1: the binding entry in assay [2] is “no binding”.

B2: PHC1 (protein, UniProt Q64028 1-1010)
chain: METESEQNSSSTNGSSSSGASSRPQIAQMSLYERQAVQALQALQRQPNAAQYFHQFMLQQQLSNAQLHSLAAVQQATIAASRQASSPNSSTAQQQTATTQASMNLATTSAAQLISRSQSVSSPSATTLTQSVLLGNTTSPPLNQSQAQMYLRPQLGNLLQVNRTLGRNVPLASQLILMPNGAVAAVQQEVPPAQSPGVHADADQVQNLAVRNQQASAQGPQMPGSTQKAIPPGASPVSGLSQTSSQALAVAQASSGASGQSLNLSQAGGGSGNSLPGSMGPGGGGQAPGGLGQLPSSGLTGGSCPRKGTGVVQPLPAAQTVTVSQGSQTEAESAAAKKAEADGSGQQSVGMNLTRTATPAPSQTLISSATYTQIQPHSLIQQQQQIHLQQKQVVIQQQIAIHHQQQFQHRQSQLLHTATHLQLAQQQQQQQQQQQQQQQQQQQQQQGTTLTAPQPPQVPPTQQVPPSQSQQQAQTLVVQPMLQSSPLTLPPEPTSKPPIPIQSKPPVAPIKPPQLGAAKMSATQQPPPHIPVQVVGTRQPGSAQAQALGLAQLAAAVPTPRGITGAVQPGQAHLASSPPSSQAAPGALQECPPALAAGMTLAPVQGTAHVVKGGPTASSPVVAQVPAAFYMQSVHLPGKAQTLAVKRKAESEEERDDLSALASVLPTKASPAAESPKVIEEKNSLGEKAEPVASLNANPPNSDLVALAPTPSAPPPTLALVSRQMGDSKPPQAIVKPQILTHIIEGFVIQEGAEPFPVGCSQFLKETKKPLQAGLPTGLNESQPSGPLGGDSPSVELEKKANLLKCEYCGKYAPAEQFRGSKRFCSMTCAKRYNVSCSHQFRLKRKKMKEFQEASYARVRRRGPRRSSSDIARAKIQGKRHRGQEDSSRGSDNSSYDEALSPTSPGPLSVRAGHGERDLGNTITTPSTPELQGINPVFLSSNPSQWSVEEVYEFIASLQGCQEIAEEFRSQEIDGQALLLLKEEHLMSAMNIKLGPALKICAKINVLKET
Turning to B2, the binding result in assay [3] is reported as “binds”.

B3: YAF2 (protein, UniProt Q99LW6 1-179)
chain: MGDKKSPTRPKRQPKPASDEGYWDCSVCTFRNSAEAFKCMMCDVRKGTSTRKPRPVSQLVAQQVTQQFVPPTQSKKEKKDRVEKDKSEKEAASKKNCHKKTRPRLKNVDRSSAQHLEVTVGDLTVIITDFKEKAKSAPASSAAGDQHSQGSCSSDSTERGVSRSSSPRGEASSLNGESH
In the case of B3, the binding result in assay [3] was “no binding”.
